Results reported in PubChem BioAssay AID493014 (National Center for Advancing Translational Sciences (NCATS), 2011).
In all, about 340,000 compounds went through this assay and about 170 (0.05%) were called active. Inconclusive means that the source gave no clear call. Such entries were picked first, then a sample of the others. Calls follow the shape of the dose curve; as a rule, active = well fitted inhibition curve with a large enough effect in the signal ratio, with a control signal flat (not every such curve was filed as active); inconclusive = small, poorly fitted or top-dose-only effect, or effect the other way, or a change in a side signal; inactive = flat fitted curve, though single readings scatter; the % refers to the signal ratio. A potency beside an inconclusive call is a rough fit, not a confirmed value.

Assay: qHTS Assay to Find Inhibitors of Chronic Active B-Cell Receptor Signaling;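 as to activity change, negative = inhibition: plate controls were basal doxycycline-induced cells for no effect and cells given 10 µM MG132 for full effect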
Settings: ABC-DLBCL IkBa-CBG/CBR reporter, luminescence ratio (green luciferase fused to IkBa over red control in TMD8 lymphoma cells), 4 h; activity change, negative = inhibition: at 46.1 µM (top of the series)
How it was run: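 Doxycycline induced both beetle luciferases in TMD8 lymphoma cells; IKK-driven degradation limits the IkappaBalpha-fused green signal, while red luminescence normalises for cell number and nonspecific effects. Compounds tested up to 46 uM, 4 hrs.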
Potency is read from the fitted curve at half-maximal effect.

Structure (SMILES)	Potency	activity change, negative = inhibition
CN(C(=O)COC(=O)c1ccc(Br)c([N+](=O)[O-])c1)c1c(N)n(Cc2ccccc2)c(=O)[nH]c1=O	inconclusive: 29.1 µM [falling, single point]	–
CC(C)=C(NC(=O)c1ccccc1)C(=O)NCc1ccccc1	–	inactive: -0.551%
CN(c1ccccc1)S(=O)(=O)c1cccc(NC(=O)c2cc3ccccc3oc2=O)c1	inconclusive: 20 µM [falling, single point]	–
CCC1Oc2ccc(C)cc2N(CC(=O)N(Cc2cccnc2)Cc2cccc(F)c2)C1=O (stereo not drawn)	–	inconclusive: 1.15%
O=c1c(-c2ccccc2)coc2c(CN3CCOCC3)c(O)ccc12	–	inconclusive: 11.2%
Cc1ccc2oc(-c3cccc(NC(=O)Cc4cccs4)c3)nc2c1	inconclusive: 0.501 µM [rising, full curve, poor fit]	–
O=C(Nc1cccc(S(=O)(=O)N2CCCC2)c1)c1cc(-c2ccccn2)nc2ccccc12	–	inactive: -3.17%
NS(=O)(=O)c1cccc(NC(=O)CSc2nnnn2-c2ccccc2)c1	–	inactive: -9.91%
O/N=C/c1ccccc1Oc1ccccc1	–	inactive: 0.612%
CCOc1ccc(C(=O)Nc2nc(C)c(C(=O)OC)s2)cc1	–	inconclusive: -14.3%
O=C(NNC(=S)NC1CC2C=CC1C2)c1cccnc1 (stereo not drawn)	–	inconclusive: -8.2%
CCc1ccc(-n2c(C)cc(/C=N/NC(=O)c3ccncc3)c2C)cc1	–	inactive: -9.92%
O=C(NC1(C(F)(F)F)N=C2SCCN2C1=O)c1cccnc1 (stereo not drawn)	–	inconclusive: -1.83%
N#Cc1c(F)cccc1NCc1cccnc1	–	inactive: -1.47%
CCOc1ccc(-n2c(SCC(=O)NCc3ccco3)nc3ccccc3c2=O)cc1	–	inconclusive: -2.39%
O=C(Nc1cccc(OC(=O)c2ccco2)c1)c1ccco1	inconclusive: 11.2 µM [falling, partial curve, poor fit]	–
O=C(NC1=NCCS1)c1cc(Cl)ccc1Cl	–	inactive: -0.286%
COc1ccc(NC(=O)C2C3C=CC4(O3)C2C(=O)N(CCN2CCCCC2)C4C(=O)NC2CCCCC2)cc1 (stereo not drawn)	–	inconclusive: 12.6%
Cc1ccccc1S(=O)(=O)Cc1ccc(C(=O)NC2CCC(C)CC2)o1 (stereo not drawn)	–	inconclusive: 1.19%
Cc1ccc(/C=C/C(=O)Nc2cc(S(=O)(=O)N3CCOCC3)ccc2N2CCOCC2)cc1	–	inconclusive: 2%
O=C(COC(=O)c1nc(Cl)c(Cl)c(Cl)c1Cl)NCc1ccccc1	inconclusive: 29.1 µM [falling, single point]	–
CCOc1cccc2cc(C(=O)Nc3nccs3)c(=O)oc12	–	inconclusive: 6.86%
Cc1cccc(NC(=S)NC2CCCCC2)n1	–	inconclusive: -4.94%

As a short view, 2 of the compounds above.
Structure (SMILES)	Potency	activity change, negative = inhibition
Cc1ccccc1S(=O)(=O)Cc1ccc(C(=O)NC2CCC(C)CC2)o1 (stereo not drawn)	–	inconclusive: 1.19%
Cc1ccc(/C=C/C(=O)Nc2cc(S(=O)(=O)N3CCOCC3)ccc2N2CCOCC2)cc1	–	inconclusive: 2%
